US20250295799A1, “ANTIBODY-DRUG CONJUGATES TARGETING GLYPICAN-3 AND METHODS OF USE” (Zymeworks BC Inc., priority 2022, published 2025)
Positions count from the first letter of the chain named. These are yes or no findings as the source states them, for the method shown. Some binding calls cover weakened binding; strength is not graded here.

The chains behind the UniProt entries cited, without tags or fusion partners. Where a name states a change or a piece, a line headed by the entry shows the natural chain unless it says otherwise.
UniProt P51654: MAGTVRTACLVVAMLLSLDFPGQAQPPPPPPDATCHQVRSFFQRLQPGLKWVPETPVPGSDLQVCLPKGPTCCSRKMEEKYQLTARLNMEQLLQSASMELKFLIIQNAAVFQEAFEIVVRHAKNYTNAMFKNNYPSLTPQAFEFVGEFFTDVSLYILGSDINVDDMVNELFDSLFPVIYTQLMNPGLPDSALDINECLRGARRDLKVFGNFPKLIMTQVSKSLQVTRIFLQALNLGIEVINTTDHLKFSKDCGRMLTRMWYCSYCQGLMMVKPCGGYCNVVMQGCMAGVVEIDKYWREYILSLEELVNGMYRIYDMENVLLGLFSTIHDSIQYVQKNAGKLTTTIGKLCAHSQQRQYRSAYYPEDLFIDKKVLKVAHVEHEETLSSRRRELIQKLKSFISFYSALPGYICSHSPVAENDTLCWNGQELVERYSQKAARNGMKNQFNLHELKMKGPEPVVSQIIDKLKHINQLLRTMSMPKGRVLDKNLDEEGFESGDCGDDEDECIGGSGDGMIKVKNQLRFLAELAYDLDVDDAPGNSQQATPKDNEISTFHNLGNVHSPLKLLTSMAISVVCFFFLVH

B1: v36180 (M3-H1L1) (antibody, human IgG1, kappa, V domains shown)
VH: EVQLVQSGAEVKKPGSSVKVSCKASGYTFTDYEMHWVRQAPGQGLEWIGAIDPETGDTAYNQKFKGRATLTADKSTSTAYMELSSLRSEDTAVYYCTRYFSFAYWGQGTLVTVSS
VL: DVQMTQSPSSVSASVGDRVTITCRSSQSLRHSNGNTYLQWYQQKPGKAPKLLIYKVSNRFSGVPSRFSGSGSGTDFTLTISSLQPEDFATYFCYQSKHVPYTFGQGTKVEIKR
B2: v40210 (H18L6_LC_G34S mAb) (antibody, human IgG1, kappa, V domains shown)
VH: B1 VH with E1Q, R38K, Q43H, R67K, K74T
VL: EIVLTQSPATLSLSPGERATISCRSSQSLRHSNSNTYLQWYQQKPGQAPRLLIYKVSNRFSGVPARFSGSGSGTDFTLTISSLEPEDFAVYFCYQSKHVPYTFGGGTKVEIKR
B3: v40211 (H18L6_LC_G34V mAb) (antibody, human IgG1, kappa, V domains shown)
VH: B1 VH with E1Q, R38K, Q43H, R67K, K74T
VL: B2 VL with S34V
B4: v40212 (H18L6_LC_G34A mAb) (antibody, human IgG1, kappa, V domains shown)
VH: B1 VH with E1Q, R38K, Q43H, R67K, K74T
VL: B2 VL with S34A
B5: v40213 (H18L6_LC_N33E mAb) (antibody, human IgG1, kappa, V domains shown)
VH: B1 VH with E1Q, R38K, Q43H, R67K, K74T
VL: B2 VL with N33E, S34G
B6: v40214 (H18L6_LC_N33T mAb) (antibody, human IgG1, kappa, V domains shown)
VH: B1 VH with E1Q, R38K, Q43H, R67K, K74T
VL: B2 VL with N33T, S34G
B7: v40215 (H18L6_LC_N33V mAb) (antibody, human IgG1, kappa, V domains shown)
VH: B1 VH with E1Q, R38K, Q43H, R67K, K74T
VL: B2 VL with N33V, S34G
B8: v40216 (H18L6_LC_N33R mAb) (antibody, human IgG1, kappa, V domains shown)
VH: B1 VH with E1Q, R38K, Q43H, R67K, K74T
VL: B2 VL with N33R, S34G
B9: v40217 (H18L6_LC_N33K mAb) (antibody, human IgG1, kappa, V domains shown)
VH: B1 VH with E1Q, R38K, Q43H, R67K, K74T
VL: B2 VL with N33K, S34G
B10: v40218 (H18L6_LC_N33H mAb) (antibody, human IgG1, kappa, V domains shown)
VH: B1 VH with E1Q, R38K, Q43H, R67K, K74T
VL: B2 VL with N33H, S34G
B11: v40219 (H18L6_LC_N33A mAb) (antibody, human IgG1, kappa, V domains shown)
VH: B1 VH with E1Q, R38K, Q43H, R67K, K74T
VL: B2 VL with N33A, S34G
B12: v40220 (H18L6_LC_N33Q mAb) (antibody, human IgG1, kappa, V domains shown)
VH: B1 VH with E1Q, R38K, Q43H, R67K, K74T
VL: B2 VL with N33Q, S34G
B13: v40221 (H18L6_LC_N33S mAb) (antibody, human IgG1, kappa, V domains shown)
VH: B1 VH with E1Q, R38K, Q43H, R67K, K74T
VL: B2 VL with N33S, S34G
B14: v37575 (codrituzumab) (antibody, human IgG1, kappa, V domains shown)
VH: QVQLVQSGAEVKKPGASVKVSCKASGYTFTDYEMHWVRQAPGQGLEWMGALDPKTGDTAYSQKFKGRVTLTADKSTSTAYMELSSLTSEDTAVYYCTRFYSYTYWGQGTLVTVSS
VL: DVVMTQSPLSLPVTPGEPASISCRSSQSLVHSNRNTYLHWYLQKPGQSPQLLIYKVSNRFSGVPDRFSGSGSGTDFTLKISRVEAEDVGVYYCSQNTHVPPTFGQGTKLEIKR
B15: v40203 (H18L6_LC_G34D mAb) (antibody, human IgG1, kappa, V domains shown)
VH: B1 VH with E1Q, R38K, Q43H, R67K, K74T
VL: B2 VL with S34D
B16: v40204 (H18L6_LC_G34E mAb) (antibody, human IgG1, kappa, V domains shown)
VH: B1 VH with E1Q, R38K, Q43H, R67K, K74T
VL: B2 VL with S34E
B17: v40205 (H18L6_LC_G34H mAb) (antibody, human IgG1, kappa, V domains shown)
VH: B1 VH with E1Q, R38K, Q43H, R67K, K74T
VL: B2 VL with S34H
B18: v40206 (H18L6_LC_G34R mAb) (antibody, human IgG1, kappa, V domains shown)
VH: B1 VH with E1Q, R38K, Q43H, R67K, K74T
VL: B2 VL with S34R
B19: v40207 (H18L6_LC_G34K mAb) (antibody, human IgG1, kappa, V domains shown)
VH: B1 VH with E1Q, R38K, Q43H, R67K, K74T
VL: B2 VL with S34K
B20: v40208 (H18L6_LC_G34Q mAb) (antibody, human IgG1, kappa, V domains shown)
VH: B1 VH with E1Q, R38K, Q43H, R67K, K74T
VL: B2 VL with S34Q
B21: v40209 (H18L6_LC_G34T mAb) (antibody, human IgG1, kappa, V domains shown)
VH: B1 VH with E1Q, R38K, Q43H, R67K, K74T
VL: B2 VL with S34T

Molecular target: recombinant cynomolgus GPC3 (ACROBiosystems) (cynomolgus monkey)
Assay: SPR

binding, binds:
B1, B2, B3, B4, B5, B6, B7, B8, B9, B10, B11, B12, B13, B14, B15, B16, B17, B18, B19, B20, B21

Molecular target: recombinant human GPC3 (ACROBiosystems) (human) (UniProt P51654)
Assay: SPR

binding, binds:
B1, B2, B3, B4, B5, B6, B7, B8, B9, B10, B11, B12, B13, B15, B16, B17, B18, B19, B20, B21
